Reference: US12629341B2 (priority 2019, dated 2026)

Conditions: nanodiscs formed with 3 equivalents of MA-SMA

Question: Which “estimated subunit number of daptomycin oligomer” value does the source give for CCCCCCCCCC(=O)N[C@@H](Cc1c[nH]c2ccccc12)C(=O)N[C@H](CC(N)=O)C(=O)N[C@@H](CC(=O)O)C(=O)N[C@@H]1C(=O)NCC(=O)N[C@@H](CCCN)C(=O)N[C@@H](CC(=O)O)C(=O)N[C@H](C)C(=O)N[C@@H](CC(=O)O)C(=O)NCC(=O)N[C@H](CO)C(=O)N[C@@H]([C@H](C)CC(=O)O)C(=O)N[C@@H](CC(=O)c2ccccc2N)C(=O)O[C@@H]1C [daptomycin] here?
Answer: Its value is 7.4±0.33.
